Data as given in patent US20200048333A1 (THOMAS JEFFERSON UNIVERSITY, published 2020).
No constants are given. Whether binding was seen depends on the method and setting. Some results given as binding are weak or reduced against the parent protein; the word gives no strength.

Amino acid sequences for entries named in this document (tags omitted). A change or cut given only in a name is not applied to a line headed by its entry.
UniProt P02452: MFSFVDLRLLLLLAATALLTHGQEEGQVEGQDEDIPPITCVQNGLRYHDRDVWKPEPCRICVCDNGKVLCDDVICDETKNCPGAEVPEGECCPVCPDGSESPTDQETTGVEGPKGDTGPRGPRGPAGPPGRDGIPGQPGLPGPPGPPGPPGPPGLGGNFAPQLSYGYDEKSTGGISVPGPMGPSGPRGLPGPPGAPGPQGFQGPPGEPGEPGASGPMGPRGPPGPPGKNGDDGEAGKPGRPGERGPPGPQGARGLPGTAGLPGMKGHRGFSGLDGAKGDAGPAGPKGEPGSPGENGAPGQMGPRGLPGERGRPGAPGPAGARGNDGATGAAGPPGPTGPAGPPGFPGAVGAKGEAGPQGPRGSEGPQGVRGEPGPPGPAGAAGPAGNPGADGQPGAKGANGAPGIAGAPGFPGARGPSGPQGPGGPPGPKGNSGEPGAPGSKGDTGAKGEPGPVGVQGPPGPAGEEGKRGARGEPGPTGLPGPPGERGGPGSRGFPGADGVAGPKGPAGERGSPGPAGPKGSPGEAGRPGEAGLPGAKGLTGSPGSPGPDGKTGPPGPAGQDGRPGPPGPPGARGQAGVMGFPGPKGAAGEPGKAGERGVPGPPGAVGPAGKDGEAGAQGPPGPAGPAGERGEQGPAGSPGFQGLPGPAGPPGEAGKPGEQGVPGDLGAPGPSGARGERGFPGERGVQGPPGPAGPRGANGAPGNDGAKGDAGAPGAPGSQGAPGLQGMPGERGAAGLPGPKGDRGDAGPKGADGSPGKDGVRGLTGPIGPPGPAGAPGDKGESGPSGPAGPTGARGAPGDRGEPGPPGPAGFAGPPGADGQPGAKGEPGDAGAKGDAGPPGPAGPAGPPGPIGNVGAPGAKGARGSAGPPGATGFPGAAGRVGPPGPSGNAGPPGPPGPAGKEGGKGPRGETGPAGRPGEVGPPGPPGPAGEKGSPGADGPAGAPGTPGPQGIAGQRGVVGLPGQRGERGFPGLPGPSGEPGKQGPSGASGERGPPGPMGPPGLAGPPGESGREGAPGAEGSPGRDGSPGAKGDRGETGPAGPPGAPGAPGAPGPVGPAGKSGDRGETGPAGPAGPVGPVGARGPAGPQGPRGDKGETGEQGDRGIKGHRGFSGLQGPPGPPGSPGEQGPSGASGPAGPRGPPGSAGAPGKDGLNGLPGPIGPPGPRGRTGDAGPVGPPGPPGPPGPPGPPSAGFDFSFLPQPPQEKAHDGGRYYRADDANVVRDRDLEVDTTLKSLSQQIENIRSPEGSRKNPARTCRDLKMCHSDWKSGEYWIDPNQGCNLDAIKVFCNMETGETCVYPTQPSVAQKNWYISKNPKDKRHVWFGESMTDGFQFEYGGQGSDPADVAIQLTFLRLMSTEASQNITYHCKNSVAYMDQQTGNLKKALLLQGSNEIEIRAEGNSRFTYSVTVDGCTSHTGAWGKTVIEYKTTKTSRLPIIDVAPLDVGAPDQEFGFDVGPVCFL
UniProt P08123: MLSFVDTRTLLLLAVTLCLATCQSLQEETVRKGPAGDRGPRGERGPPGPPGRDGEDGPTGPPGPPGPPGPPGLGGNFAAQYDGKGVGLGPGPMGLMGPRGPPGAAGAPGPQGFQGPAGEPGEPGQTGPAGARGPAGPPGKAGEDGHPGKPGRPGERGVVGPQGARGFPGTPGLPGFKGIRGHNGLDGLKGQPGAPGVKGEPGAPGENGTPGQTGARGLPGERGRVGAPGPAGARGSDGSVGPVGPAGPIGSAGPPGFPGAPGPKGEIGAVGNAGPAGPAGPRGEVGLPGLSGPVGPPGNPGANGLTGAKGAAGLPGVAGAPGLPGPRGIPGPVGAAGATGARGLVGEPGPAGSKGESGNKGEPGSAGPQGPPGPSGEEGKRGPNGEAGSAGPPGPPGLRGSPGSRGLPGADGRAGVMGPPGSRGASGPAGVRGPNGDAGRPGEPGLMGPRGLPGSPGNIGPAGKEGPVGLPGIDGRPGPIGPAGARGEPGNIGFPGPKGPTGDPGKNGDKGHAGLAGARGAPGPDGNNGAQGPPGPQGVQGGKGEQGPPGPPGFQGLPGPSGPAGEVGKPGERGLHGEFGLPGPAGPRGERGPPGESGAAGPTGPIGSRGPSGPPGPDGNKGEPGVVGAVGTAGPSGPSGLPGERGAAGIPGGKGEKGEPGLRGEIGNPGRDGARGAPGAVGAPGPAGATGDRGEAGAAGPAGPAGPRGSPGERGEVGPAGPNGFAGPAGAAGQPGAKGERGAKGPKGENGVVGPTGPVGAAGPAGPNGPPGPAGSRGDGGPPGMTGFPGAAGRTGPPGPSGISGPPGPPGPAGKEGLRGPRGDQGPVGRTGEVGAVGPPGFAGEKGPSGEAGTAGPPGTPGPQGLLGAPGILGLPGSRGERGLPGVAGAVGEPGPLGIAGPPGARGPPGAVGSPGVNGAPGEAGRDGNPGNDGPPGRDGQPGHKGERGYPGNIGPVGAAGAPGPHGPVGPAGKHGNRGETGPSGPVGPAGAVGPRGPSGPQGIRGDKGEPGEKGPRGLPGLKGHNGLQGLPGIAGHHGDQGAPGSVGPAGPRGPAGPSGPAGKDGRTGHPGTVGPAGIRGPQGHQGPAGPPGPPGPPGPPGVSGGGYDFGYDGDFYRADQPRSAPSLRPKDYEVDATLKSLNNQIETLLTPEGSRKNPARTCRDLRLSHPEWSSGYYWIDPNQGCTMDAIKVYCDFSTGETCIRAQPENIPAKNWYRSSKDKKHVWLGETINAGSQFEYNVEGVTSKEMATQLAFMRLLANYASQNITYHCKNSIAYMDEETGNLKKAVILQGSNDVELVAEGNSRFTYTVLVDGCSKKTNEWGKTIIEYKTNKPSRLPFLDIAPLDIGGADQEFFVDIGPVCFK

Tests used:
[1] = target: human procollagen I isolated from human dermal fibroblasts (human) (UniProt P02452+P08123); test: biosensor; procollagen I immobilized, scFv injected at various concentrations (panel head: native α2Ct present in collagen I)
GYDGDF = target: T1, GYDGDF (also: biotinylated (position not given here)); test: blot: antibody variant immobilized on nitrocellulose, biotinylated peptide bound, chemiluminescence
T1 construct: also called biotinylated α2Ct peptide GYDGDF
T1 peptide: GYDGDF

GDFYRA = target: T2, GDFYRA (also: biotinylated (position not given here)); test: as above
T2 construct: also called biotinylated α2Ct peptide GDFYRA
T2 peptide: GDFYRA

α2Ct fragment GYDFG = target: T3, α2Ct fragment GYDFG (human); test: biosensor
T3 construct: One of the overlapping peptides spanning the human α2Ct
T3 peptide: GYDFG

α2Ct fragment DFYRA = target: T4, α2Ct fragment DFYRA (human); test: biosensor
T4 construct: One of the overlapping peptides spanning the human α2Ct
T4 peptide: DFYRA

α2Ct fragment DFGYD = target: T5, α2Ct fragment DFGYD (human); test: biosensor
T5 construct: One of the overlapping peptides spanning the human α2Ct
T5 peptide: DFGYD

α2Ct fragment DGDFY = target: T6, α2Ct fragment DGDFY (human); test: biosensor
T6 construct: One of the overlapping peptides spanning the human α2Ct; also called A2_DGDFY
T6 peptide: DGDFY

α2Ct fragment GYDGD = target: T7, α2Ct fragment GYDGD (human); test: biosensor
T7 construct: One of the overlapping peptides spanning the human α2Ct
T7 peptide: GYDGD

Measured: binding

B1: scFv variant of the AFA consisting of the VL and VH domains connected via a peptide linker (scFv, V domains shown, not shown: small tags and cut ends)
VL: DIVMSQSPSSLAVSAGEKVTMSCKSSQSLLNSRTRKNNLAWYQQKPGQSPKLLIYWASTRESGVPDRFTGSGSGTDFTLTISSVQAEDLAVYYCKQSYNLWTFGGGTKLEIKR
V domain: AQIQLVQSGPELKKPGETVKISCKASGYTFTDYPLHWVKQAPGKGLQWMAWINTETGEPTYADDFTGRFAFSLETSASTAYLQINNLKNEDTATYFCVRGYYYYWGQGTTLSVSS
notes: The domain order VL-linker-VH follows the wording 'VL and VH domains connected via a peptide linker'; also called single chain antibody
binds: [1] | GYDGDF | GDFYRA

B2: full-length anti-fibrotic antibody (AFA), monoclonal anti-collagen I antibody against the α2(I) C-telopeptide (antibody, V domains shown)
VH: B1 V domain
VL: B1 VL
notes: The control was human IgG; also called full-length AFA; Full-length AFA antibody
binds: α2Ct fragment GYDFG | α2Ct fragment DFYRA | α2Ct fragment DFGYD | α2Ct fragment DGDFY | α2Ct fragment GYDGD
